For 3 molecules, binding results are on record in patent US20260265321A1, “PEPTIDE AND POLYPEPTIDE INHIBITING THE NF-KB SIGNALING PATHWAY” (Centre National de la Recherche Scientifique, priority 2023, published 2026).

Sequences of proteins named here, by UniProt entry; tags and fusion partners are left off.
UniProt P25963: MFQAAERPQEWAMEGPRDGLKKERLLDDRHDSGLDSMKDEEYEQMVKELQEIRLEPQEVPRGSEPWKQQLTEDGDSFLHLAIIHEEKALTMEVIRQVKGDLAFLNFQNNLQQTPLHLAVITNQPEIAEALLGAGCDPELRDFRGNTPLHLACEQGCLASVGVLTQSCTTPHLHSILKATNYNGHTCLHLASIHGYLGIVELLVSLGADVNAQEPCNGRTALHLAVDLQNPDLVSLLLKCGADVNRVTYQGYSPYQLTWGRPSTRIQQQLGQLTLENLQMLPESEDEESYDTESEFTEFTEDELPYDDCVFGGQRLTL

Results are given in words; binding and its absence hold for the method and conditions named. For some of these results: In cells and extracts the contact can be indirect. Some binding calls cover weakened binding; strength is not graded here. Sequences can lack the tags named with a protein.

Experiment [1] deals with T1, 6×His-IKKβ(1-669) EE (human) (UniProt O14920).
T1 sequence (looked up): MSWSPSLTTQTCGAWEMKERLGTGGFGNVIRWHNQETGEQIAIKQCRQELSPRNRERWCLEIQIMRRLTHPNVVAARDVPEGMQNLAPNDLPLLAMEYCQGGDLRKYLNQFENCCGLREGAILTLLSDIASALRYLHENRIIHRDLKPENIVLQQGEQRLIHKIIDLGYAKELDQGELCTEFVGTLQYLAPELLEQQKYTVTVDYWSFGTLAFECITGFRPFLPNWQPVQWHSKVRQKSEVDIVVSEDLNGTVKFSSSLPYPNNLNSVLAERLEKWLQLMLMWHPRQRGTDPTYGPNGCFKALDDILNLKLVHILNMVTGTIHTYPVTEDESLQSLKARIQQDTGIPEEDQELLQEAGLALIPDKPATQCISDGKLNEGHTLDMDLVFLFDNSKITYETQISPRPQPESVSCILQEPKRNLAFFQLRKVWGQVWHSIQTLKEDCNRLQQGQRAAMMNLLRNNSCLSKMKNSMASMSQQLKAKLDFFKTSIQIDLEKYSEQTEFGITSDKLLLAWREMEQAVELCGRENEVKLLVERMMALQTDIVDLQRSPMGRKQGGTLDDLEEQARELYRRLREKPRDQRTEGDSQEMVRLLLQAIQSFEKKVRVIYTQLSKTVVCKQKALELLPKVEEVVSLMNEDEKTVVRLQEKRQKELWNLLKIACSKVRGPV
Description: MBP pulldown, purified proteins.

The target of experiment [2] is T2, G1-IKKα, full-length wt IKKα fused to the Gluc1 fragment (human) (UniProt O15111).
T2 sequence (looked up): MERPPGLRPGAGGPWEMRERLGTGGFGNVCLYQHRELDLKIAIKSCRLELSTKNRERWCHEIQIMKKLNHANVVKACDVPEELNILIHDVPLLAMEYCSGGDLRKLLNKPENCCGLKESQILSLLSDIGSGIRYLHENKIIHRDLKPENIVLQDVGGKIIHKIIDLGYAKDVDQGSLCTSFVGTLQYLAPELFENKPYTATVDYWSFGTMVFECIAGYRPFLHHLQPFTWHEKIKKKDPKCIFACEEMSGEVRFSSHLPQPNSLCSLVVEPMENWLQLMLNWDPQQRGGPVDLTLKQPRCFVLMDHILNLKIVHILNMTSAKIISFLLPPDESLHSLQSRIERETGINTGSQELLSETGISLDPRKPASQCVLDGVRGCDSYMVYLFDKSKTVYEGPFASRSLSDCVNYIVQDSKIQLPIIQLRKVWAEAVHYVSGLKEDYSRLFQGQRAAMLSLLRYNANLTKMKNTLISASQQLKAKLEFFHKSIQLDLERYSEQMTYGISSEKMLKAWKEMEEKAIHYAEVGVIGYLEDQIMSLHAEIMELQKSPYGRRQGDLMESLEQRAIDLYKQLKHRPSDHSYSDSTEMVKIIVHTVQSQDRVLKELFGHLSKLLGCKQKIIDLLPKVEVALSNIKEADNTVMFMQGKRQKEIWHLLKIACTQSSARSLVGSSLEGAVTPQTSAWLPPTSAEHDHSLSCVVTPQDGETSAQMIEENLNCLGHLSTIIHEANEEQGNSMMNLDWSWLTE
Description: GPCA.

Experiment [3] addresses T3, G1-IKKα, full-length wt IKKα fused to the Gluc1 fragment (human), O15111.
T3 chain: T2 sequence (looked up)
Description: GPCA. To be noted: remark: other sources report otherwise.

The target of experiment [4] is T3, G1-IKKα, full-length wt IKKα fused to …. Description: GPCA (Gaussia princeps protein complementation assay), G1-IKKα FL with G2-p100 constructs, NLR. To be noted: remark: other sources report otherwise.

Take “MBP-IκBα full-length (from UniProt P25963 1-317)”: the binding entry in experiment [1] is “binds”.

B1: full length IRF7 (GPCA construct) (protein, UniProt Q92985 1-503, looked up, not shown: large carriers)
chain: MALAPERAAPRVLFGEWLLGEISSGCYEGLQWLDEARTCFRVPWKHFARKDLSEADARIFKAWAVARGRWPPSSRGGGPPPEAETAERAGWKTNFRCALRSTRRFVMLRDNSGDPADPHKVYALSRELCWREGPGTDQTEAEAPAAVPPPQGGPPGPFLAHTHAGLQAPGPLPAPAGDKGDLLLQAVQQSCLADHLLTASWGADPVPTKAPGEGQEGLPLTGACAGGPGLPAGELYGWAVETTPSPGPQPAALTTGEAAAPESPHQAEPYLSPSPSACTAVQEPSPGALDVTIMYKGRTVLQKVVGHPSCTFLYGPPDPAVRATDPQQVAFPSPAELPDQKQLRYTEELLRHVAPGLHLELRGPQLWARRMGKCKVYWEVGGPPGSASPSTPACLLPRNCDTPIFDFRVFFQELVEFRARQRRGSPRYTIYLGFGQDLSAGRPKEKSLVLVKLEPWLCRVHLEGTQREGVSSLDSSSLSLCLSSANSLYDDIECFLMELEQPA
Turning to B1, the binding result in experiment [2] is reported as “binds”.

B2: G2-p100 FL, Q00653 1-900 (protein, UniProt Q00653 1-900, looked up, not shown: large carriers)
chain: MESCYNPGLDGIIEYDDFKLNSSIVEPKEPAPETADGPYLVIVEQPKQRGFRFRYGCEGPSHGGLPGASSEKGRKTYPTVKICNYEGPAKIEVDLVTHSDPPRAHAHSLVGKQCSELGICAVSVGPKDMTAQFNNLGVLHVTKKNMMGTMIQKLQRQRLRSRPQGLTEAEQRELEQEAKELKKVMDLSIVRLRFSAFLRASDGSFSLPLKPVISQPIHDSKSPGASNLKISRMDKTAGSVRGGDEVYLLCDKVQKDDIEVRFYEDDENGWQAFGDFSPTDVHKQYAIVFRTPPYHKMKIERPVTVFLQLKRKRGGDVSDSKQFTYYPLVEDKEEVQRKRRKALPTFSQPFGGGSHMGGGSGGAAGGYGGAGGGGSLGFFPSSLAYSPYQSGAGPMGCYPGGGGGAQMAATVPSRDSGEEAAEPSAPSRTPQCEPQAPEMLQRAREYNARLFGLAQRSARALLDYGVTADARALLAGQRHLLTAQDENGDTPLHLAIIHGQTSVIEQIVYVIHHAQDLGVVNLTNHLHQTPLHLAVITGQTSVVSFLLRVGADPALLDRHGDSAMHLALRAGAGAPELLRALLQSGAPAVPQLLHMPDFEGLYPVHLAVRARSPECLDLLVDSGAEVEATERQGGRTALHLATEMEELGLVTHLVTKLRANVNARTFAGNTPLHLAAGLGYPTLTRLLLKAGADIHAENEEPLCPLPSPPTSDSDSDSEGPEKDTRSSFRGHTPLDLTCSTKVKTLLLNAAQNTMEPPLTPPSPAGPGLSLGDTALQNLEQLLDGPEAQGSWAELAERLGLRSLVDTYRQTTSPSGSLLRSYELAGGDLAGLLEALSDMGLEEGVRLLRGPETRDKLPSTAEVKEDSAYGSQSVEQEAEKLGPPPEPPGGLCHGHPQPQVH
On to B2, for which the binding entry in experiment [3] and in experiment [4] was “binds” throughout.
